Reference: patent publication US6475746B1, “Method of obtaining a composition comprising a 5-HT1D selective compound” (Synaptic Pharmaceutical Corporation, priority 1990, dated 2002)
At least one compound was matched to its structure with a doubt left.

The chains behind the UniProt entries cited, without tags or fusion partners.
UniProt P11614, whole entry: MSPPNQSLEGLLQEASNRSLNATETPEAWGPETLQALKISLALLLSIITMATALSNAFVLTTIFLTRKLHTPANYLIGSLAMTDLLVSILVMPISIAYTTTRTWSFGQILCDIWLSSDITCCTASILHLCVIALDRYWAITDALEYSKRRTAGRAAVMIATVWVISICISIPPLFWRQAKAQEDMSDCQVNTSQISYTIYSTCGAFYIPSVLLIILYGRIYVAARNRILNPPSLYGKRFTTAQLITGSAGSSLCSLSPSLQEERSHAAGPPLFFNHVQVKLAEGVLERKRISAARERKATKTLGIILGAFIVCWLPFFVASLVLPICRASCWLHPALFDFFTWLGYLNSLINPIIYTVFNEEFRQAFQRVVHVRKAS
UniProt P28222, whole entry: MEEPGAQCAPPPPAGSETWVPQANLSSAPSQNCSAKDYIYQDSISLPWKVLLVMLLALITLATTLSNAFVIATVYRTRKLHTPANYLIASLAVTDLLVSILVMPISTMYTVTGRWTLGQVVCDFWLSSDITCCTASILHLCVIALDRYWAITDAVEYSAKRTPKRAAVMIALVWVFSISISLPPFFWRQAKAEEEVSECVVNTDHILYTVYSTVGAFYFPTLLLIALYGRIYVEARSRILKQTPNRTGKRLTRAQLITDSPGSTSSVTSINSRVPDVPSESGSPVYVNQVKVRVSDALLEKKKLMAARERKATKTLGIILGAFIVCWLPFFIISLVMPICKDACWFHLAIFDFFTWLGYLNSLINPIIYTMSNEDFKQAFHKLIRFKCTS

Key:
[1] = molecular target: Cloned Canine 5-HT1D-1 (RDC4) (Canis lupus familiaris, UniProt P11614); assay: [3H]5-HT binding to cloned canine 5-HT1D-1 (RDC4) in transfected cell membranes
[2] = molecular target: Cloned Human 5-HT1D-2 (Homo sapiens, UniProt P28222); assay: [3H]5-HT binding to cloned human 5-HT1D-2 (gene 11) in transfected cell membranes; conditions: transfected Cos-7 cells, peptide 11; masking ligand 1 μM

## CN1CCc2cc(Cl)c(O)cc2[C@@H](c2ccccc2)C1 [SCH-23390]
[1]; RDC4-transfected cells, 1 μm
  effect of co-incubation on high affinity 3H-5-HT binding: ineffective
[1]; transfected Cos-7 cells, RDC4, masking ligand 1 μM
  effect of masking ligand on specific binding or pharmacological profile: no significant effect
[2]
  effect of masking ligand on specific binding or pharmacological profile: no significant effect
